Data as given in the supplement of paper PMC10849652.
The list shows a part of the results.

Protein sequences, listed by entry. Tags and fused reporters are not part of them. Lines headed by an entry give the natural chain unless they say otherwise; changes in a name come on top.
UniProt Q14191, whole entry, looked up: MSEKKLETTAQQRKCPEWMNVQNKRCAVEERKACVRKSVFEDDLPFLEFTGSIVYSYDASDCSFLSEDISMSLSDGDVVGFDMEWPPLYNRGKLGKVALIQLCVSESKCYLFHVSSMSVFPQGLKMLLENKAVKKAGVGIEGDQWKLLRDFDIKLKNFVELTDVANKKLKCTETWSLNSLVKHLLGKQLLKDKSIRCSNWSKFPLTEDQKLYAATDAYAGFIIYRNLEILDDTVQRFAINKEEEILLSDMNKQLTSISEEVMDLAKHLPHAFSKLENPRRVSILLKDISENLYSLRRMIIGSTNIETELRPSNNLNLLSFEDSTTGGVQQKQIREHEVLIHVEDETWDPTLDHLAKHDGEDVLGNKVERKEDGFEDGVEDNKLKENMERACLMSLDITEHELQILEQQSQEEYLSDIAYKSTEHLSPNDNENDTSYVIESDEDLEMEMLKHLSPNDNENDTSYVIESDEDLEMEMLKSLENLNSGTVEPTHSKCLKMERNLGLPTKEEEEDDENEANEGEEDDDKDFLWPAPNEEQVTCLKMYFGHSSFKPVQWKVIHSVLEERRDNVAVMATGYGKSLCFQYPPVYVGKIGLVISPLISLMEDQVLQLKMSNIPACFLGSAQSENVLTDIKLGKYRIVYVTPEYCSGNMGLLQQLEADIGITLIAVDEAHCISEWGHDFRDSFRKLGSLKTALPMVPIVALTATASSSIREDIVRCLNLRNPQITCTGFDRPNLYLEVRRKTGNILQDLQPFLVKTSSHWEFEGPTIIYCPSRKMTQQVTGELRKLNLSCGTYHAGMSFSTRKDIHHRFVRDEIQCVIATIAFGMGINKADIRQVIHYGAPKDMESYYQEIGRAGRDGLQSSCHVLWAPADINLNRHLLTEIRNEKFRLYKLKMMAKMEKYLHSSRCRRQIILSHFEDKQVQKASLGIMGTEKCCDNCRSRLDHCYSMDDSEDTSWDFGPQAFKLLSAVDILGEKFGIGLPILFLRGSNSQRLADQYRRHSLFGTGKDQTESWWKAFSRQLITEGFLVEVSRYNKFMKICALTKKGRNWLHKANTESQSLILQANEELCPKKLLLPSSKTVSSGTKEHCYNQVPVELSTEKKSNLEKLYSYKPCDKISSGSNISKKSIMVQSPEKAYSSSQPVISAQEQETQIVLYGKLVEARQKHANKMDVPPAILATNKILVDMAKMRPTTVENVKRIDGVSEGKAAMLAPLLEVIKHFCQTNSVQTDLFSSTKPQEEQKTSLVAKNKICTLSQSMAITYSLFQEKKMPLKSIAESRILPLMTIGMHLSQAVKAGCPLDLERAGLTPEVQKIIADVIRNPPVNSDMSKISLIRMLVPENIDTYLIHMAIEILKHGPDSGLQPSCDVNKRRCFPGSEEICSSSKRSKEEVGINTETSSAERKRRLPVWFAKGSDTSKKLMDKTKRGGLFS
UniProt Q7Z7G8: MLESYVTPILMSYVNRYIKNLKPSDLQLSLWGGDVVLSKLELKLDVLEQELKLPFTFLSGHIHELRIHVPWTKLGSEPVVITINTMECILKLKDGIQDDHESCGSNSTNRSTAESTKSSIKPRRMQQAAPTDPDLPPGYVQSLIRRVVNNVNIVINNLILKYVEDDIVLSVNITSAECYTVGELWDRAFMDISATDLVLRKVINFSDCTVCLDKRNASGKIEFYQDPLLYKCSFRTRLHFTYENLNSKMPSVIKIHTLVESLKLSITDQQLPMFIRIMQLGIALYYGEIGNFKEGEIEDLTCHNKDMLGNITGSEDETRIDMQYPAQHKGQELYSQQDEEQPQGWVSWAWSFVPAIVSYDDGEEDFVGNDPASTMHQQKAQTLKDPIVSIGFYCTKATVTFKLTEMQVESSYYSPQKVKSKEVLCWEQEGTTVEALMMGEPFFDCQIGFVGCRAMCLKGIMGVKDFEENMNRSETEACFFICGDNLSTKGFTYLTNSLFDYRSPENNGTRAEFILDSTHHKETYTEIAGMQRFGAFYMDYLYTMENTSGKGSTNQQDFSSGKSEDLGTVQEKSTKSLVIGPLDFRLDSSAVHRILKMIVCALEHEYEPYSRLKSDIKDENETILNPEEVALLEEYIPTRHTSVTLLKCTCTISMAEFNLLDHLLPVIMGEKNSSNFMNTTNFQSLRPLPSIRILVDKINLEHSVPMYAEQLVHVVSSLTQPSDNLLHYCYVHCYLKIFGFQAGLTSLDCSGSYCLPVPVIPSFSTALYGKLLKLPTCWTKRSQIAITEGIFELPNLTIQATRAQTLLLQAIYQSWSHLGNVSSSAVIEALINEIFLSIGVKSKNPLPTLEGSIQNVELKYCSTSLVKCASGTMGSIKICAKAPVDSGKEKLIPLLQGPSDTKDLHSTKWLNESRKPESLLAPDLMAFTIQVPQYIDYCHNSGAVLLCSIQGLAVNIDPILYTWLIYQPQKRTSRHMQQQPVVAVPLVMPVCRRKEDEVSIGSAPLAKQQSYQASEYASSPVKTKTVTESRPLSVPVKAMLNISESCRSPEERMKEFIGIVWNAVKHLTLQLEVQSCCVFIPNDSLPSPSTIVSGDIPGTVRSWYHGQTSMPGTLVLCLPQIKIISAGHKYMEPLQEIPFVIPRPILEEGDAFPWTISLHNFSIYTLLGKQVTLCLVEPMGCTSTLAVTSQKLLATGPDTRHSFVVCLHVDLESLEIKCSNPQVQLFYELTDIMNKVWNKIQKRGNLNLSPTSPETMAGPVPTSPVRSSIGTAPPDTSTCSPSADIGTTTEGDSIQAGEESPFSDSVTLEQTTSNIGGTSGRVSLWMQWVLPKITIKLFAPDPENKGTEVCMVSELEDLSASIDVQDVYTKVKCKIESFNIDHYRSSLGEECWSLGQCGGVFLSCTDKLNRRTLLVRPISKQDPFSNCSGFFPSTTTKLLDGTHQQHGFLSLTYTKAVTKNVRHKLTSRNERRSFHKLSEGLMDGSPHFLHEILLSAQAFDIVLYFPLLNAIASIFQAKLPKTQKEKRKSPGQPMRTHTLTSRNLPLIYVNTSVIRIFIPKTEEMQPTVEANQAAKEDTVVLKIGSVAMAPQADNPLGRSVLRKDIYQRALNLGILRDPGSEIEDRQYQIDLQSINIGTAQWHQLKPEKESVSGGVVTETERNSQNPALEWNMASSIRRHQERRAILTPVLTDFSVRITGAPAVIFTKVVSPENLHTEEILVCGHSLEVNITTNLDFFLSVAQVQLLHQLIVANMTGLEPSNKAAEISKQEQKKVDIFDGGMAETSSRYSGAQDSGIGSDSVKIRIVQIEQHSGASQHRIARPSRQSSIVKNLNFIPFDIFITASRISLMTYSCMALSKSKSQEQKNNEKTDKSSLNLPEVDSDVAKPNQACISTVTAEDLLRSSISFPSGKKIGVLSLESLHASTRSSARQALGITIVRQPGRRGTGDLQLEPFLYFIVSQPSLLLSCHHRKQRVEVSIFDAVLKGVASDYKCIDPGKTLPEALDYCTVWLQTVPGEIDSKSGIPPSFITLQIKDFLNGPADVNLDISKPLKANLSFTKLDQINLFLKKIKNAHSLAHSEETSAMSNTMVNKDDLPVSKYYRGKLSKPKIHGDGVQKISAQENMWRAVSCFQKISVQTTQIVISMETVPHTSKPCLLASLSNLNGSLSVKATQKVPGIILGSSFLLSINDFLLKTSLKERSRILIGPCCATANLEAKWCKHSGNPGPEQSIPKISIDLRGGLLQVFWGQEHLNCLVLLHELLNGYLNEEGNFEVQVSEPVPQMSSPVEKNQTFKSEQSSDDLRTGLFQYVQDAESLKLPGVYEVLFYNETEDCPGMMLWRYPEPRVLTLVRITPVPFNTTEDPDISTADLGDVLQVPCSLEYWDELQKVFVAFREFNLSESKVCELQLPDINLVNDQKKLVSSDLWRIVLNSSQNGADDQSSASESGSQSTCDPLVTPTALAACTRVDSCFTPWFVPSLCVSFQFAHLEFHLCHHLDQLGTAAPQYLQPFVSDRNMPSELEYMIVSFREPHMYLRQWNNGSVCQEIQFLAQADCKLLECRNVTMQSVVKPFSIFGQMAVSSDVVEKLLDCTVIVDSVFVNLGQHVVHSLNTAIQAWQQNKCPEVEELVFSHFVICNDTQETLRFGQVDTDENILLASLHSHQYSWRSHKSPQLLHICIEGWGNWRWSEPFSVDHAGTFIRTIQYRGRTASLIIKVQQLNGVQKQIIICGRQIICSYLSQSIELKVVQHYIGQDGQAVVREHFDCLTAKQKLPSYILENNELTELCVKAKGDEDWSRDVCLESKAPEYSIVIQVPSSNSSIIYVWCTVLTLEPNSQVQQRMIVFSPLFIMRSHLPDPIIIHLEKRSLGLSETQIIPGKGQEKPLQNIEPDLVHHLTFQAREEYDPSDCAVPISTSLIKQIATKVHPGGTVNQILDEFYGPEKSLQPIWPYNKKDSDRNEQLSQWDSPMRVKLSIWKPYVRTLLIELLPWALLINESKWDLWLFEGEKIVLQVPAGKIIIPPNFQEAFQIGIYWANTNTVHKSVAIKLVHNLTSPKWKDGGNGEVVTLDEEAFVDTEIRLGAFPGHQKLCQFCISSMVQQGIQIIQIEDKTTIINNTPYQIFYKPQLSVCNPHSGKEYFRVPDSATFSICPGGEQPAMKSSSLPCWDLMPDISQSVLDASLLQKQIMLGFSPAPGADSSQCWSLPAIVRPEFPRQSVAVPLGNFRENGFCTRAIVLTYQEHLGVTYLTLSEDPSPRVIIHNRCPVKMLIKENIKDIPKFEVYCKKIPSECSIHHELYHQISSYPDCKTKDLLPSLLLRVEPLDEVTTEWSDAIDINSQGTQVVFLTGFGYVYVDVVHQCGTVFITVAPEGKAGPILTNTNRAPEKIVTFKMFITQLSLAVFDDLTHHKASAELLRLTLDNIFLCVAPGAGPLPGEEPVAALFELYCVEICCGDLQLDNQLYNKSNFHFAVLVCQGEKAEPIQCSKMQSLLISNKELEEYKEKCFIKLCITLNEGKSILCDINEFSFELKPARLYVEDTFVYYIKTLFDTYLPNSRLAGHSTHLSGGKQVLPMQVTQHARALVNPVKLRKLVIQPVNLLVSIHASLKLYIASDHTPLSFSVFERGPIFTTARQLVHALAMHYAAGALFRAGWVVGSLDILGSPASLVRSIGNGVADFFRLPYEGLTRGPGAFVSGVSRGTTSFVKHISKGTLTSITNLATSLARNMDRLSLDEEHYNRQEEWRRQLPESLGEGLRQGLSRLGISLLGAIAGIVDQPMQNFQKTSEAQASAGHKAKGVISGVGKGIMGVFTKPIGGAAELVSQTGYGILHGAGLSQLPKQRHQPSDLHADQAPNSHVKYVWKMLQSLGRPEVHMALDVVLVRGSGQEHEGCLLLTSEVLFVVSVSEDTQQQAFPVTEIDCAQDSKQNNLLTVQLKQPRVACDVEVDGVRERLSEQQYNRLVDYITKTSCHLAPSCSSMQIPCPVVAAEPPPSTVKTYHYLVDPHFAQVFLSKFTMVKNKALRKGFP
UniProt P57081: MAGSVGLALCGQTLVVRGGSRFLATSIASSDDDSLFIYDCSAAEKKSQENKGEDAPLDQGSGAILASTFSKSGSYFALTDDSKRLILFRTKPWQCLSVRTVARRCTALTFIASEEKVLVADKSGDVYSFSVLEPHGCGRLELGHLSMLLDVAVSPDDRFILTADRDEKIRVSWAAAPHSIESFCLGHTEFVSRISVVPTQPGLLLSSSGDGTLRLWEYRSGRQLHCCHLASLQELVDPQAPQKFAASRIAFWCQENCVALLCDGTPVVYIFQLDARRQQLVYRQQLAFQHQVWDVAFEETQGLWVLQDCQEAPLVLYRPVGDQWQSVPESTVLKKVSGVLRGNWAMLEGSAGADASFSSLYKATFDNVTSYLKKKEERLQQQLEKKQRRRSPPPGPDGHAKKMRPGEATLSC
UniProt Q9NP79: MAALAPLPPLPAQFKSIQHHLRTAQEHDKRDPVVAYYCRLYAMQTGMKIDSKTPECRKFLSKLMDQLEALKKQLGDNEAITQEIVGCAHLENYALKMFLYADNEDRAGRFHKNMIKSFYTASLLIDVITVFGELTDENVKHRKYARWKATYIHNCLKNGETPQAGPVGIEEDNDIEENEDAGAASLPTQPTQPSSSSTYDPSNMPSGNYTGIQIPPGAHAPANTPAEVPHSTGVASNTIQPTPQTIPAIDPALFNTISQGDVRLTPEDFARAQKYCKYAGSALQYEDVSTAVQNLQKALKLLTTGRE
UniProt A5D8V6: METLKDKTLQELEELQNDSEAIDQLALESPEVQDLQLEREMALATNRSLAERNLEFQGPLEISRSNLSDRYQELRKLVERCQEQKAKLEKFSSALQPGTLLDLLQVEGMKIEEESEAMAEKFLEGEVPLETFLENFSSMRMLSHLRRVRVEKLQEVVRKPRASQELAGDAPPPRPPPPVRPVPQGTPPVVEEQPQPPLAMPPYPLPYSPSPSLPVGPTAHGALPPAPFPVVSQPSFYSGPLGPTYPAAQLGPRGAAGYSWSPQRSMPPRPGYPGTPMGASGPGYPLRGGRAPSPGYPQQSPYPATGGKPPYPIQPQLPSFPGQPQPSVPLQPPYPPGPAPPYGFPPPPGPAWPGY

Assays:
Assay in all cases: log2 fold change, soluble protein after heating vs DMSO (PISA); higher = thermal stabilisation; K562 lysate, 10 uM; active = over 0.2 and 3.5 SD of the protein, either way, in both replicates (recomputed)
[1] = compound: C1=CC=C(C=C1)[C@H](COC2=CC3=C(C=C2)NC(=O)N3)NC(=O)C4=CC=CN(C4=O)CC5=CC(=C(C=C5)F)F
How it was run: (§1)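 Quantification was by TMTpro 16plex LC-MS/MS with equalised channel sums, applied to the supernatant after 21,000xg for 90 min. Samples were crude K562 extract at 1 mg/mL protein in PBS pH 7.4 with 1 mM MgCl2, treated with 10 μM compound for 30 min, heated for 3 min across 48°C-58°C, pooled and brought to 0.5% NP-40 at 4°C. Values are log-two fold changes in thermal stability relative to solvent controls, from duplicates.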

[2] = compound: CC1=C(SC2=C1C(=N[C@H](C3=NN=C(N32)C)CC(=O)N)C4=CC=C(C=C4)Cl)C
How it was run: as §1

[3] = compound: CC1=C2C(=CC=C1)N=C(N(C2=O)C3=CC=CC=C3C)CN4C=NC5=C(N=CN=C54)N
How it was run: as §1

[4] = compound: Cc1sc2c(c1C)C(c1ccc(Cl)cc1)=N[C@@H](CC(=O)OC(C)(C)C)c1nnc(C)n1-2
How it was run: as §1

[5] = compound: c1ccc([C@@H]2C[C@H]2NC2CCNCC2)cc1
How it was run: as §1

Measured: log2 fold change

WRN (UniProt Q14191)
inactive: [1] 0.006 | [2] -0.017 | [3] 0.009 | [4] 0.01 | [5] 0.006

WDR46 (UniProt O15213)
inactive: [1] -0.023 | [2] 0.016 | [3] -0.003 | [4] -0.038 | [5] -0.01

WBP2 (UniProt Q969T9)
inactive: [1] 0.025 | [2] 0.009 | [3] 0.006 | [4] 0.005 | [5] 0.046

WAC (UniProt Q9BTA9)
inactive: [1] -0.03 | [2] 0.056 | [3] -0.013 | [4] 0.041 | [5] 0.037

WNK4 (UniProt Q96J92)
inactive: [1] -0.074 | [2] 0 | [3] -0.045 | [4] -0.086 | [5] 0.204

WDR74 (UniProt Q6RFH5)
inactive: [1] 0.026 | [2] -0.009 | [3] 0.006 | [4] 0.034 | [5] 0.035

VPS54 (UniProt Q9P1Q0)
inactive: [1] -0.157 | [2] 0.136 | [3] 0.044 | [4] 0.053 | [5] -0.217

WDR46, A0A0G2JJL1
inactive: [1] 0.028 | [2] 0.052 | [3] -0.176 | [4] 0.037 | [5] 0.012

WASHC2C (UniProt Q9Y4E1)
inactive: [1] 0.052 | [2] -0.018 | [3] -0.041 | [4] -0.095 | [5] -0.087

WASF2 (UniProt Q9Y6W5)
inactive: [1] -0.002 | [2] 0 | [3] -0.012 | [4] -0.028 | [5] -0.006

WDR62 isoform 4 (UniProt O43379)
inactive: [1] 0.026 | [2] -0.004 | [3] -0.011 | [4] 0.003 | [5] 0.038

WDFY1 (UniProt Q8IWB7)
inactive: [1] 0.039 | [2] -0.034 | [3] 0.03 | [4] -0.06 | [5] -0.044

WIPF3 (UniProt A6NGB9)
inactive: [1] 0.024 | [2] -0.016 | [3] -0.031 | [4] -0.057 | [5] -0.06

VPS18 (UniProt Q9P253)
inactive: [1] -0.014 | [2] 0.013 | [3] 0.032 | [4] 0.067 | [5] 0.012

VPS26A (UniProt O75436)
inactive: [1] 0.01 | [2] 0.019 | [3] 0.009 | [4] -0.038 | [5] -0.02

VPS13B (UniProt Q7Z7G8)
inactive: [1] 0.093 | [2] -0.057 | [3] 0.104 | [4] -0.005 | [5] -0.091

VPS39 (UniProt Q96JC1)
inactive: [1] -0.008 | [2] -0.002 | [3] -0.006 | [4] -0.009 | [5] 0.3

WDR4 (UniProt P57081)
inactive: [1] 0.034 | [2] -0.015 | [3] 0.019 | [4] -0.024 | [5] -0.026

WDR37 isoform 2 (UniProt Q9Y2I8)
inactive: [1] -0.056 | [2] 0.012 | [3] 0.037 | [4] 0.003 | [5] 0.045

VTA1 (UniProt Q9NP79)
inactive: [1] -0.036 | [2] 0.02 | [3] 0.002 | [4] 0.081 | [5] 0.04

4 neighbouring entries out of the list so far:
VPS54 (UniProt Q9P1Q0)
inactive: [1] -0.157 | [2] 0.136 | [3] 0.044 | [4] 0.053 | [5] -0.217

WDR46, A0A0G2JJL1
inactive: [1] 0.028 | [2] 0.052 | [3] -0.176 | [4] 0.037 | [5] 0.012

WASHC2C (UniProt Q9Y4E1)
inactive: [1] 0.052 | [2] -0.018 | [3] -0.041 | [4] -0.095 | [5] -0.087

WASF2 (UniProt Q9Y6W5)
inactive: [1] -0.002 | [2] 0 | [3] -0.012 | [4] -0.028 | [5] -0.006

Following part

VRK2 (UniProt Q86Y07)
inactive: [1] 0.004 | [2] 0 | [3] -0.242 | [4] -0.023 | [5] -0.018

VMP1 (UniProt Q96GC9)
inactive: [1] 0.084 | [2] -0.062 | [3] 0.025 | [4] -0.076 | [5] -0.108

WAS (UniProt P42768)
inactive: [1] 0.003 | [2] -0.006 | [4] -0.095 | [5] 0.053

VPS37C (UniProt A5D8V6)
inactive: [1] 0.032 | [2] -0.075 | [3] -0.038 | [4] -0.021 | [5] 0.031

VPS37B (UniProt Q9H9H4)
inactive: [1] 0.028 | [2] 0.039 | [3] 0.01 | [4] -0.01 | [5] 0.064
